This is an account of results in patent publication US20240173353A1, “UNIVERSAL CHIMERIC ANTIGEN RECEPTOR T-CELL AND APPLICATION THEREOF” (SHANGHAI IASO BIOTECHNOLOGY CO., LTD., priority 2021, published 2024).

Amino acid sequences for entries named in this document (tags omitted). Residues count along the entry.
UniProt P15391, residues 20-291: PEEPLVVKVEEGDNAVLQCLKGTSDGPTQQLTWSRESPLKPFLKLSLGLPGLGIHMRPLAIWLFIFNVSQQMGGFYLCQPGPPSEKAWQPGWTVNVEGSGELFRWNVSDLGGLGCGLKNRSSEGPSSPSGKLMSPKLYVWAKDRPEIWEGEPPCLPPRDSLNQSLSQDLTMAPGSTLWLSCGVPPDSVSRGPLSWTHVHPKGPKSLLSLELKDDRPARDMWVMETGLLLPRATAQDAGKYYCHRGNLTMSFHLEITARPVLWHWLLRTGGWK

For this assay, the target named is CD19-antigen (human) (UniProt P15391). As to the kind of experiment: flow cytometry, CD19 antigen staining of CAR-expressing UCART cells.

No constants are given. Whether binding was seen depends on the method and setting. Some entries that bind do so weakly or less than the wild type.

B1: Anti-CD19 scFv on the CAR structure of CD19-UCART containing various third signal structures (scFv, not shown: small tags and cut ends)
scFv: QAVLTQPPSVSEAPRQRVTISCSGSSSNIGNNAVSWYQQLPGKAPKLLIYYDDLLPSGVSDRFSGSKSGTSASLAISGLQSEDEADYYCAAWDDSLNGWVFGGGTKVTVLGGGGGSGGGGSGGGGSEVQLVQSGAEVKKPGESLKISCKGSGYSFTSYWIGWVRQMPGKGLEWMGIIYPGDSDTRYSPSFQGQVTISADKSISTAYLQWSSLKASDTAMYYCARLSYSWSSWYWDFWGQGTLVTVSS
As to B1, the binding entry is reported as “binds”.
